PMC7228994
No constants are given. Whether binding was seen depends on the method and setting. In cells and extracts the contact can be indirect. A yes stands for co-enrichment or nearness to the bait. Other partners may have been found. Tags and fused reporters may be left off the sequences shown.

By UniProt entry, the sequences of proteins in these tests, tags left out.
UniProt Q8IY92: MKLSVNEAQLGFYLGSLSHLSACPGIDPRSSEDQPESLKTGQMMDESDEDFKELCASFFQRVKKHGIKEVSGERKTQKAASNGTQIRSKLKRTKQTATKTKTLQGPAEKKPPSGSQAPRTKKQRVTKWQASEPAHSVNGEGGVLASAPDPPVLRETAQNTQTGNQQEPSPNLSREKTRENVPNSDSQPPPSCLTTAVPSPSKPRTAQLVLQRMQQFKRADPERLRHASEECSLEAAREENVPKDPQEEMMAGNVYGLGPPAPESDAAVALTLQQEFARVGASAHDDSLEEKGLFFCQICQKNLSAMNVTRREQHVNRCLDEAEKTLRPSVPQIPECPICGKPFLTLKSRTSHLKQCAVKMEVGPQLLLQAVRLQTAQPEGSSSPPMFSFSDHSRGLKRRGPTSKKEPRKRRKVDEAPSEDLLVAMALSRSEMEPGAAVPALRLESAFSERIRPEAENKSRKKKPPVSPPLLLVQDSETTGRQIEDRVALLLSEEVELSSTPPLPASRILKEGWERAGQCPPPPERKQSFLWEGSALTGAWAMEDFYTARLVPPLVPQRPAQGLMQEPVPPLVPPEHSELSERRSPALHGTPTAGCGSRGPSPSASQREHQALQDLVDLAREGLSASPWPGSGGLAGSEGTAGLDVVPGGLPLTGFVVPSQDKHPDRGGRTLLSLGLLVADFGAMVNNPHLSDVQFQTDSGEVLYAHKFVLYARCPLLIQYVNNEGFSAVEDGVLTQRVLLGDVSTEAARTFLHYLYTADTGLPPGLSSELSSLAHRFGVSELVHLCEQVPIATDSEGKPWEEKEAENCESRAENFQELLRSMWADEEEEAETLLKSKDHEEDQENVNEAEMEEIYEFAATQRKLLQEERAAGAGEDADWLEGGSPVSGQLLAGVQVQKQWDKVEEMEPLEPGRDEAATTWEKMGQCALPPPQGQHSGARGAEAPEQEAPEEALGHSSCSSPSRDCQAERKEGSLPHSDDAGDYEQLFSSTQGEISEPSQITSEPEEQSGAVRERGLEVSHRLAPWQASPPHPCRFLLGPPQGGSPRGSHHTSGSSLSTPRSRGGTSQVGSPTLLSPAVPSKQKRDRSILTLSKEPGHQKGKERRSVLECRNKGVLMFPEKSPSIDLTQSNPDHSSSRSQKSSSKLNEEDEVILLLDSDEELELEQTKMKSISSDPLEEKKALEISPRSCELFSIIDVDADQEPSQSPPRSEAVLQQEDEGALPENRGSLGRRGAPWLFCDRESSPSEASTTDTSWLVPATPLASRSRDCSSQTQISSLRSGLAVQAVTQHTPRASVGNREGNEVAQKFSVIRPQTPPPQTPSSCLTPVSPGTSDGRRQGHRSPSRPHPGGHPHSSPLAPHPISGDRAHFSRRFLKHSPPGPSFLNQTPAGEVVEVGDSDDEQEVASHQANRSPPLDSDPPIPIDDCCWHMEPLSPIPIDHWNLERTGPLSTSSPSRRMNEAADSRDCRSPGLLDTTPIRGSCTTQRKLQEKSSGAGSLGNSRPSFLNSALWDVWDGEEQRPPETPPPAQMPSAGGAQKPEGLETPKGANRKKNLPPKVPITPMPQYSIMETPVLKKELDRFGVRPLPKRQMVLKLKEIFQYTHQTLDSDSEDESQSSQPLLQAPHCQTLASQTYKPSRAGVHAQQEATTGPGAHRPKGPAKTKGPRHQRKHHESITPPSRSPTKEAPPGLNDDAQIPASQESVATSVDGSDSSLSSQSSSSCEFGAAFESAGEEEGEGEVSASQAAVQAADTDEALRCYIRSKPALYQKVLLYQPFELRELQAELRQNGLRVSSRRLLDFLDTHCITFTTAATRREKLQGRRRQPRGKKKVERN
UniProt P19447: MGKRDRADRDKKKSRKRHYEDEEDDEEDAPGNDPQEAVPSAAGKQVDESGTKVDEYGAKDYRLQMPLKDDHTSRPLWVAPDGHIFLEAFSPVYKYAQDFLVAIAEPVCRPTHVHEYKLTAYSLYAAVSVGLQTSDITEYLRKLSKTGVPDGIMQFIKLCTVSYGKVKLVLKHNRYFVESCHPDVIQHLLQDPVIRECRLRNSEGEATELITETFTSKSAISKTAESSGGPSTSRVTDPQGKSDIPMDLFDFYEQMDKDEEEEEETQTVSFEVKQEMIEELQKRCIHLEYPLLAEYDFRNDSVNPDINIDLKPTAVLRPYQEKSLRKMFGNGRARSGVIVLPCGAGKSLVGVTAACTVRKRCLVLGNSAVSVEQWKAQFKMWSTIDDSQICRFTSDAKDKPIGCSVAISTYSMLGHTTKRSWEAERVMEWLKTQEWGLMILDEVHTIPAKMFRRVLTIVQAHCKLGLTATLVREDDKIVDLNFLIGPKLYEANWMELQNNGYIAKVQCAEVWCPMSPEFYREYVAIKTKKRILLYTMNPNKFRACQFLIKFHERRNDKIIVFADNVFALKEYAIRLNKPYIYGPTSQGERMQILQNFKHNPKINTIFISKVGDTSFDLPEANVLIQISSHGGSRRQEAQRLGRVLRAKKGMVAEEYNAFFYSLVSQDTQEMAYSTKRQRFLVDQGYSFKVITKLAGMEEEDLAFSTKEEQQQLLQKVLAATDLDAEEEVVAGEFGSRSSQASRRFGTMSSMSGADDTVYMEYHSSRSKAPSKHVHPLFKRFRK
UniProt P32780: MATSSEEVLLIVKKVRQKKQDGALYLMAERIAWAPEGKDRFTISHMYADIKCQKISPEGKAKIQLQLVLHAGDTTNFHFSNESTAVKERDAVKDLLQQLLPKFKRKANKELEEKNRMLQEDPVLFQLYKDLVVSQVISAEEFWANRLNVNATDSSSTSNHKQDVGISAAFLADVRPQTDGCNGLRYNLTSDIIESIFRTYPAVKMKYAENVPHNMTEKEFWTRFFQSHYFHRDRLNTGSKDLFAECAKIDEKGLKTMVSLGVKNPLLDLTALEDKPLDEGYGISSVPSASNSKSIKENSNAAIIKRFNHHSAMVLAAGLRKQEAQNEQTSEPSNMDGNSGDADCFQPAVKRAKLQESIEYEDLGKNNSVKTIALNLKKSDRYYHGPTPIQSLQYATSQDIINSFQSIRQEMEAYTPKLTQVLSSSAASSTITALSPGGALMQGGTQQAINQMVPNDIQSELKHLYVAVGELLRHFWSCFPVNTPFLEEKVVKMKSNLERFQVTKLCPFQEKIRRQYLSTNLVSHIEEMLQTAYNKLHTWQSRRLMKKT

T1: ERCC1–GFP (human) (UniProt P07992)
T1 sequence: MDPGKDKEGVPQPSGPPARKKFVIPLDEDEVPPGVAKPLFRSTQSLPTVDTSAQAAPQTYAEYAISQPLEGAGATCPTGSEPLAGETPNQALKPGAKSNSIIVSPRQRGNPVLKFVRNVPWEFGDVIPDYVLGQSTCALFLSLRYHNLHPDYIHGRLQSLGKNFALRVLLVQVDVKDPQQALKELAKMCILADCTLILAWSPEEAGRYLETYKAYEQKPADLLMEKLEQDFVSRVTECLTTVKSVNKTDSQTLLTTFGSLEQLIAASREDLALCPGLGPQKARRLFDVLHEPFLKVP


molecular target: T1, ERCC1–GFP (human); assay: affinity purification with mass spectrometry; GFP-Trap_A beads on MNase-digested chromatin-enriched nuclear extracts of SILAC-labelled U2OS ERCC1–GFP cells, mock-treated or 1 h after 20 J/m^2 UVC; forward and reverse (label swap) experiments

Molecule | binding
SLX4 (from UniProt Q8IY92 1-1834) | binds
XPB/ERCC3 (from UniProt P19447 1-782) | binds
XPG/ERCC5 (protein, UniProt P28715 1-1186) MGVQGLWKLLECSGRQVSPEALEGKILAVDISIWLNQALKGVRDRHGNSIENPHLLTLFHRLCKLLFFRIRPIFVFDGDAPLLKKQTLVKRRQRKDLASSDSRKTTEKLLKTFLKRQAIKTAFRSKRDEALPSLTQVRRENDLYVLPPLQEEEKHSSEEEDEKEWQERMNQKQALQEEFFHNPQAIDIESEDFSSLPPEVKHEILTDMKEFTKRRRTLFEAMPEESDDFSQYQLKGLLKKNYLNQHIEHVQKEMNQQHSGHIRRQYEDEGGFLKEVESRRVVSEDTSHYILIKGIQAKTVAEVDSESLPSSSKMHGMSFDVKSSPCEKLKTEKEPDATPPSPRTLLAMQAALLGSSSEEELESENRRQARGRNAPAAVDEGSISPRTLSAIKRALDDDEDVKVCAGDDVQTGGPGAEEMRINSSTENSDEGLKVRDGKGIPFTATLASSSVNSAEEHVASTNEGREPTDSVPKEQMSLVHVGTEAFPISDESMIKDRKDRLPLESAVVRHSDAPGLPNGRELTPASPTCTNSVSKNETHAEVLEQQNELCPYESKFDSSLLSSDDETKCKPNSASEVIGPVSLQETSSIVSVPSEAVDNVENVVSFNAKEHENFLETIQEQQTTESAGQDLISIPKAVEPMEIDSEESESDGSFIEVQSVISDEELQAEFPETSKPPSEQGEEELVGTREGEAPAESESLLRDNSERDDVDGEPQEAEKDAEDSLHEWQDINLEELETLESNLLAQQNSLKAQKQQQERIAATVTGQMFLESQELLRLFGIPYIQAPMEAEAQCAILDLTDQTSGTITDDSDIWLFGARHVYRNFFNKNKFVEYYQYVDFHNQLGLDRNKLINLAYLLGSDYTEGIPTVGCVTAMEILNEFPGHGLEPLLKFSEWWHEAQKNPKIRPNPHDTKVKKKLRTLQLTPGFPNPAVAEAYLKPVVDDSKGSFLWGKPDLDKIREFCQRYFGWNRTKTDESLFPVLKQLDAQQTQLRIDSFFRLAQQEKEDAKRIKSQRLNRAVTCMLRKEKEAAASEIEAVSVAMEKEFELLDKAKGKTQKRGITNTLEESSSLKRKRLSDSKGKNTCGGFLGETCLSESSDGSSSEDAESSSLMNVQRRTAAKEPKTSASDSQNSVKEAPVKNGGATTSSSSDSDDDGGKEKMVLVTARSVFGKKRRKLRRARGRKRKT | binds

Next, values leading:

binding | Molecule
binds | p62/GTF2H1 (from UniProt P32780 1-548)
binds | p34/GTF2H3 (protein, UniProt Q13889 1-308) MVSDEDELNLLVIVVDANPIWWGKQALKESQFTLSKCIDAVMVLGNSHLFMNRSNKLAVIASHIQESRFLYPGKNGRLGDFFGDPGNPPEFNPSGSKDGKYELLTSANEVIVEEIKDLMTKSDIKGQHTETLLAGSLAKALCYIHRMNKEVKDNQEMKSRILVIKAAEDSALQYMNFMNVIFAAQKQNILIDACVLDSDSGLLQQACDITGGLYLKVPQMPSLLQYLLWVFLPDQDQRSQLILPPPVHVDYRAACFCHRNLIEIGYVCSVCLSIFCNFSPICTTCETAFKISLPPVLKAKKKKLKVSA
binds | p52/GTF2H4 (protein, UniProt Q92759 1-462) MESTPSRGLNRVHLQCRNLQEFLGGLSPGVLDRLYGHPATCLAVFRELPSLAKNWVMRMLFLEQPLPQAAVALWVKKEFSKAQEESTGLLSGLRIWHTQLLPGGLQGLILNPIFRQNLRIALLGGGKAWSDDTSQLGPDKHARDVPSLDKYAEERWEVVLHFMVGSPSAAVSQDLAQLLSQAGLMKSTEPGEPPCITSAGFQFLLLDTPAQLWYFMLQYLQTAQSRGMDLVEILSFLFQLSFSTLGKDYSVEGMSDSLLNFLQHLREFGLVFQRKRKSRRYYPTRLAINLSSGVSGAGGTVHQPGFIVVETNYRLYAYTESELQIALIALFSEMLYRFPNMVVAQVTRESVQQAIASGITAQQIIHFLRTRAHPVMLKQTPVLPPTITDQIRLWELERDRLRFTEGVLYNQFLSQVDFELLLAHARELGVLVFENSAKRLMVVTPAGHSDVKRFWKRQKHSS
binds | p44/GTF2H2 (protein, UniProt Q13888 1-395) MDEEPERTKRWEGGYERTWEILKEDESGSLKATIEDILFKAKRKRVFEHHGQVRLGMMRHLYVVVDGSRTMEDQDLKPNRLTCTLKLLEYFVEEYFDQNPISQIGIIVTKSKRAEKLTELSGNPRKHITSLKKAVDMTCHGEPSLYNSLSIAMQTLKHMPGHTSREVLIIFSSLTTCDPSNIYDLIKTLKAAKIRVSVIGLSAEVRVCTVLARETGGTYHVILDESHYKELLTHHVSPPPASSSSECSLIRMGFPQHTIASLSDQDAKPSFSMAHLDGNTEPGLTLGGYFCPQCRAKYCELPVECKICGLTLVSAPHLARSYHHLFPLDAFQEIPLEEYNGERFCYGCQGELKDQHVYVCAVCQNVFCVDCDVFVHDSLHCCPGCIHKIPAPSGV
